The values that follow come from article PMC4491177, “Co-translational capturing of nascent ribosomal proteins by their dedicated chaperones” (Nature Communications, 2015).

The chains behind the UniProt entries cited, without tags or fusion partners. Where a name states a change or a piece, a line headed by the entry shows the natural chain unless it says otherwise.
UniProt P14126: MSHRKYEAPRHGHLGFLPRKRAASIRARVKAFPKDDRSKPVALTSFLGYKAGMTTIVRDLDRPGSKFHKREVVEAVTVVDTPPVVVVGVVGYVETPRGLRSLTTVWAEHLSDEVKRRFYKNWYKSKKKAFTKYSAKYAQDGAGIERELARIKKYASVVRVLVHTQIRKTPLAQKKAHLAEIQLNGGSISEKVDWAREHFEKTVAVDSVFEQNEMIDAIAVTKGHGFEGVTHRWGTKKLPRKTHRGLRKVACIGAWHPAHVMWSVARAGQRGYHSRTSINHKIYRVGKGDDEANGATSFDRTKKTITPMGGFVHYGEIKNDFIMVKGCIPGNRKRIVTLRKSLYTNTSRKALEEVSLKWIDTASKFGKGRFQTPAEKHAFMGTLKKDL

These are yes or no findings as the source states them, for the method shown. Some results given as binding are weak or reduced against the parent protein; the word gives no strength. For some assays here: Sequences can lack the tags named with a protein.

The target in experiment [1] is T1, NTAP-Rrb1 (S. cerevisiae) (UniProt Q04225).
T1 sequence: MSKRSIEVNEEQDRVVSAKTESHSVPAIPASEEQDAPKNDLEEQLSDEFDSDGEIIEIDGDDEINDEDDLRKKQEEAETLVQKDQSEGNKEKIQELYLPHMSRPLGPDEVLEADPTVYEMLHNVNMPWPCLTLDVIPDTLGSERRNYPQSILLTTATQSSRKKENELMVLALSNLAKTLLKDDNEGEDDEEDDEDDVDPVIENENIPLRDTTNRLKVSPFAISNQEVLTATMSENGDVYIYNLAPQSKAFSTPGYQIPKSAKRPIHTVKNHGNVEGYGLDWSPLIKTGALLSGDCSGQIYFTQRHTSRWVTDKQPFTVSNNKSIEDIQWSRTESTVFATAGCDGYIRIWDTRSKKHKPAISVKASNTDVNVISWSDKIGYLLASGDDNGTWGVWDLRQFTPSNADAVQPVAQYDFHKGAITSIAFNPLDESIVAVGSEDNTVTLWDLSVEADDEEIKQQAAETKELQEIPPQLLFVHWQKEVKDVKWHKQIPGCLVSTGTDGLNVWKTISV
Briefly: tandem-affinity purification (TAP); TAP-tagged bait purified from yeast cell lysates; 50 mM Tris-HCl (pH 7.5), 100 mM NaCl, 1.5 mM MgCl2, 5% glycerol, 0.1% NP-40; final EGTA eluates on SDS-PAGE, Coomassie staining.

The target of experiment [2] is T2, Rrb1 (yeast two-hybrid fusion) (S. cerevisiae) (UniProt Q04225).
T2 sequence: T1 sequence
Kind of experiment: two-hybrid; bait fused to the Gal4 DNA-binding domain, prey to the Gal4 activation domain, reporter strain PJ69-4A; HIS3 and ADE2 reporters, plates 3 days at 30 °C.

Experiment [3] deals with T3, Rrb1.60C (yeast two-hybrid fusion) (S. cerevisiae) (UniProt Q04225).
T3 sequence: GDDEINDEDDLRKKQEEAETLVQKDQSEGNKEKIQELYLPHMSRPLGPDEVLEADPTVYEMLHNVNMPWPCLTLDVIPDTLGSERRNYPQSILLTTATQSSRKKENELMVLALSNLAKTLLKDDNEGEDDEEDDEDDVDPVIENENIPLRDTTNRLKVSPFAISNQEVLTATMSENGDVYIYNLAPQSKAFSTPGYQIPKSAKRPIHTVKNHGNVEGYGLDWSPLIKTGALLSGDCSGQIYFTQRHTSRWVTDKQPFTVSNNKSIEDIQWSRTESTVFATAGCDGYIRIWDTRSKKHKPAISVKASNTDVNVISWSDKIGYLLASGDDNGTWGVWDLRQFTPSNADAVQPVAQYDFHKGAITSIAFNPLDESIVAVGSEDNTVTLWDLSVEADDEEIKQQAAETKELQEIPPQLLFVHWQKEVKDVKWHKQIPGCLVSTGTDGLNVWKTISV
The description is as above.

The target in experiment [4] is T1, NTAP-Rrb1 (S. cerevisiae). Briefly: affinity purification of a TAP-tagged bait from yeast cells (in vivo co-purification); Sqt1-TAP or NTAP-Rrb1 bait; yEGFP fusions or 2xHA-tagged ribosomal proteins as prey; Supplementary Fig. 3b,c, methods not shown.

In the case of “Rpl3 (endogenous) (from UniProt P14126 1-387)”, the binding entry in experiment [1] is reported as “binds”.
As for “Rpl3 (yeast two-hybrid fusion) (from UniProt P14126 1-387)”, the binding entry in experiment [2] and in experiment [3] was “binds” in each case.
For Rpl3-2xHA (from UniProt P14126 1-387), the binding result in experiment [4] is “binds”.
For “Rpl3.8C (yeast two-hybrid fusion) (from UniProt P14126 8-387) (domain or fragment)”, the binding entry in experiment [2] is “no binding”.
